Values quoted from earlier work as cited in patent US6589563B2 (Nanodelivery, Inc., priority 1999, dated 2003).

Conditions: cited from earlier work

For `CC(=O)O[C@H]1C(=O)[C@@]2(C)[C@H]([C@H](OC(=O)c3ccccc3)[C@]3(O)C[C@H](OC(=O)[C@H](O)[C@@H](NC(=O)c4ccccc4)c4ccccc4)C(C)=C1C3(C)C)[C@]1(OC(C)=O)CO[C@@H]1C[C@@H]2O` [Taxol, Paclitaxel], the water solubility is given as “water-insoluble”.
